{"source": "PubChem BioAssay AID652243 (Drosophila RNAi Screening Center, 2013)", "aim": "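Fly regulators of androgen-dependent reporter output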 (primary screen)", "cell system": "Drosophila S2R+ cells", "reagent": "long dsRNA against Drosophila genes", "time to read-out": "72 h (48 h, then 24 h hormone)", "challenge": "synthetic androgen R1881 at 10 nM for 24 h", "read-out": "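Per-well raw luminescence of the androgen-driven firefly reporter and of the Renilla control, two replicates each, without normalisation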", "scale": "firefly reporter light: higher = more light from androgen-responsive reporter; Renilla control light: higher = more constitutive control signal (cell number, transfection)", "call rule": "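Hit when the log firefly-to-Renilla ratio dropped or increased by a fixed fold versus the mean of GFP or LacZ controls across duplicate plates; lowering cut given as 1.5 and as 3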", "meaning of the calls": "active = hit: reporter lowered or raised; inactive = no hit", "note": "The screen tested about 24,000 reagents; this is a random part of those with a known target gene and a result. In the full data, 246 (1%) got an active call. 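Plates not normalised; calls are printed but the firefly/Renilla ratio behind them is not deposited; fold cut for lowering reported inconsistently.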 Raw values vary from plate to plate and are shown uncorrected. Names joined by + are all predicted targets of the reagent. Not given: the amount of reagent."}
{"Gene": "Skp2 + CG1103", "dsRNA": "DRSC12160", "firefly reporter light, replicate 1": 69152, "firefly reporter light, replicate 2": 85825, "Renilla control light, replicate 1": 7.08e5, "Renilla control light, replicate 2": 7.99e5, "activity call": "inactive"}
{"Gene": "Skp2 + CG1103", "dsRNA": "DRSC22356", "firefly reporter light, replicate 1": 4.27e5, "firefly reporter light, replicate 2": 4.40e5, "Renilla control light, replicate 1": 1.10e6, "Renilla control light, replicate 2": 1.02e6, "activity call": "inactive"}
{"Gene": "Tim9a", "dsRNA": "DRSC19753", "firefly reporter light, replicate 1": 4.24e5, "firefly reporter light, replicate 2": 5.27e5, "Renilla control light, replicate 1": 3.30e6, "Renilla control light, replicate 2": 3.38e6, "activity call": "inactive"}
{"Gene": "Tbp (TATA binding protein)", "dsRNA": "DRSC23111", "firefly reporter light, replicate 1": 2.65e5, "firefly reporter light, replicate 2": 3.23e5, "Renilla control light, replicate 1": 1.68e6, "Renilla control light, replicate 2": 1.98e6, "activity call": "active"}
{"Gene": "CG13251", "dsRNA": "DRSC11699", "firefly reporter light, replicate 1": 2.01e5, "firefly reporter light, replicate 2": 1.37e5, "Renilla control light, replicate 1": 1.86e6, "Renilla control light, replicate 2": 1.64e6, "activity call": "inactive"}
{"Gene": "CG13251", "dsRNA": "DRSC27385", "firefly reporter light, replicate 1": 2.73e5, "firefly reporter light, replicate 2": 3.24e5, "Renilla control light, replicate 1": 3.90e5, "Renilla control light, replicate 2": 3.76e5, "activity call": "inactive"}
{"Gene": "CG34263", "dsRNA": "DRSC38858", "firefly reporter light, replicate 1": 7.69e5, "firefly reporter light, replicate 2": 6.65e5, "Renilla control light, replicate 1": 1.88e6, "Renilla control light, replicate 2": 1.37e6, "activity call": "inactive"}
{"Gene": "Toll-4", "dsRNA": "DRSC03458", "firefly reporter light, replicate 1": 2.23e5, "firefly reporter light, replicate 2": 2.14e5, "Renilla control light, replicate 1": 1.16e6, "Renilla control light, replicate 2": 1.17e6, "activity call": "inactive"}
{"Gene": "CG7368", "dsRNA": "DRSC10826", "firefly reporter light, replicate 1": 1.25e5, "firefly reporter light, replicate 2": 1.17e5, "Renilla control light, replicate 1": 1.85e6, "Renilla control light, replicate 2": 1.26e6, "activity call": "inactive"}
{"Gene": "CG7368", "dsRNA": "DRSC22821", "firefly reporter light, replicate 1": 1.38e5, "firefly reporter light, replicate 2": 1.53e5, "Renilla control light, replicate 1": 8.11e5, "Renilla control light, replicate 2": 1.02e6, "activity call": "inactive"}
{"Gene": "CG7368", "dsRNA": "DRSC29098", "firefly reporter light, replicate 1": 4.79e5, "firefly reporter light, replicate 2": 5.43e5, "Renilla control light, replicate 1": 1.23e6, "Renilla control light, replicate 2": 1.19e6, "activity call": "inactive"}
{"Gene": "CG11313", "dsRNA": "DRSC14295", "firefly reporter light, replicate 1": 1.19e5, "firefly reporter light, replicate 2": 1.55e5, "Renilla control light, replicate 1": 1.58e6, "Renilla control light, replicate 2": 1.97e6, "activity call": "inactive"}
{"Gene": "mTTF (mitochondrial transcription termination factor)", "dsRNA": "DRSC01909", "firefly reporter light, replicate 1": 1.48e5, "firefly reporter light, replicate 2": 1.88e5, "Renilla control light, replicate 1": 1.43e6, "Renilla control light, replicate 2": 1.68e6, "activity call": "inactive"}
{"Gene": "MSBP (membrane steroid binding protein)", "dsRNA": "DRSC20146", "firefly reporter light, replicate 1": 1.54e5, "firefly reporter light, replicate 2": 1.31e5, "Renilla control light, replicate 1": 8.02e5, "Renilla control light, replicate 2": 9.86e5, "activity call": "inactive"}

Copied from above (2 entries):
{"Gene": "CG7368", "dsRNA": "DRSC29098", "firefly reporter light, replicate 1": 4.79e5, "firefly reporter light, replicate 2": 5.43e5, "Renilla control light, replicate 1": 1.23e6, "Renilla control light, replicate 2": 1.19e6, "activity call": "inactive"}
{"Gene": "CG11313", "dsRNA": "DRSC14295", "firefly reporter light, replicate 1": 1.19e5, "firefly reporter light, replicate 2": 1.55e5, "Renilla control light, replicate 1": 1.58e6, "Renilla control light, replicate 2": 1.97e6, "activity call": "inactive"}
